Measurements as given in paper PMC8985307.
No constants are given. Whether binding was seen depends on the method and setting. Binding seen in cells or lysates may run through a third protein. Some results given as binding are weak or reduced against the parent protein; the word gives no strength.

Protein sequences, listed by entry. Tags and fused reporters are not part of them.
UniProt O75335: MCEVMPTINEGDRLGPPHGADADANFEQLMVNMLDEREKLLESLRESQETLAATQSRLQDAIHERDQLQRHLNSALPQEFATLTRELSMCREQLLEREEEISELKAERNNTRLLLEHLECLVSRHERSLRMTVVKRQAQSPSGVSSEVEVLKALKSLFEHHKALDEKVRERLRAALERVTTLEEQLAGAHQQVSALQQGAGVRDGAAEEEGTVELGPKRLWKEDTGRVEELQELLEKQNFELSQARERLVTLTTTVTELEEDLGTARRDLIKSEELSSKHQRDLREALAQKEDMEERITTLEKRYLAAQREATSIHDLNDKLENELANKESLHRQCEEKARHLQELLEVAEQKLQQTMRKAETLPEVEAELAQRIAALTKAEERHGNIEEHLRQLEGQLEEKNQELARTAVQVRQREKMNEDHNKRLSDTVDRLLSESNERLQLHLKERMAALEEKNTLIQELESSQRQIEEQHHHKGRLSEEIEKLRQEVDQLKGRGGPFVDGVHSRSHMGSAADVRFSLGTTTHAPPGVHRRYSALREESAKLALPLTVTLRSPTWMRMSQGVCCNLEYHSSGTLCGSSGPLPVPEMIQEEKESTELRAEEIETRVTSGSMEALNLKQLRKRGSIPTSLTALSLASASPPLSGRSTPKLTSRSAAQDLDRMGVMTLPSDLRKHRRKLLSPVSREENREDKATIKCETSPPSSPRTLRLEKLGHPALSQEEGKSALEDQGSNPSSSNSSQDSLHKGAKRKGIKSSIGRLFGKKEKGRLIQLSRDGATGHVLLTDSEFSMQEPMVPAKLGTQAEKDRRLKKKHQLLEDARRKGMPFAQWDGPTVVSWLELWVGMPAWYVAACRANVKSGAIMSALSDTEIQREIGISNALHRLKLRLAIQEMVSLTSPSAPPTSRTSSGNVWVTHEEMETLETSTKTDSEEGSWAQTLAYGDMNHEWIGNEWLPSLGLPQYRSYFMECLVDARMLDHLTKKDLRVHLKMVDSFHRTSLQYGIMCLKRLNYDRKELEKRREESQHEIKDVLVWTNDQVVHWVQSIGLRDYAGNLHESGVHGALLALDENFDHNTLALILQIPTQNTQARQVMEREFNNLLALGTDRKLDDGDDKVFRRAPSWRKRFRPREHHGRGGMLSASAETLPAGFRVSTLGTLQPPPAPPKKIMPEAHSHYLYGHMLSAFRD

What was measured:
[1] = target: protein tyrosine phosphatase receptor type F polypeptide interacting protein alpha 4 (PPFIA4) (human (endogenous in C4-2B and LNCaP)) (UniProt O75335); assay: co-IP; cytoplasmic and mitochondrial extracts fractionated from C4-2B cells (Cell Mitochondria Isolation Kit); IgG as negative control; COXIV and tubulin as markers
[2] = target: protein tyrosine phosphatase receptor type F polypeptide interacting protein alpha 4 (PPFIA4) (human (endogenous in C4-2B and LNCaP)) (UniProt O75335); assay: co-IP; endogenous proteins in C4-2B whole cell (total) lysates; IgG as negative control; also in cells transfected with siNC or siPPFIA4
[3] = target: protein tyrosine phosphatase receptor type F polypeptide interacting protein alpha 4 (PPFIA4) (human (endogenous in C4-2B and LNCaP)) (UniProt O75335); assay: co-IP; endogenous proteins in LNCaP cell lysates; IgG as negative control; cells with or without androgen deprivation (charcoal-stripped serum), or transfected with empty vector or PPFIA4 overexpression plasmid

Measured: binding

B1: methylenetetrahydrofolate dehydrogenase 2 (MTHFD2) (enzyme, UniProt P13995 36-350)
chain: EAVVISGRKLAQQIKQEVRQEVEEWVASGNKRPHLSVILVGENPASHSYVLNKTRAAAVVGINSETIMKPASISEEELLNLINKLNNDDNVDGLLVQLPLPEHIDERRICNAVSPDKDVDGFHVINVGRMCLDQYSMLPATPWGVWEIIKRTGIPTLGKNVVVAGRSKNVGMPIAMLLHTDGAHERPGGDATVTISHRYTPKEQLKKHTILADIVISAAGIPNLITADMIKEGAAVIDVGINRVHDPVTAKPKLVGDVDFEGVRQKAGYITPVPGGVGPMTVAMLMKNTIIAAKKVLRLEEREVLKSKELGVATN
binds: all assays above
